According to publication PMC3197142:
No constants are given. Whether binding was seen depends on the method and setting. Binding seen in cells or lysates may run through a third protein. Some binding calls cover weakened binding; strength is not graded here. Where a sequence is shown, tags or fusion partners need not be part of it.

Target: T1, GST-Matrin-3 (human) (UniProt P43243)
T1 sequence: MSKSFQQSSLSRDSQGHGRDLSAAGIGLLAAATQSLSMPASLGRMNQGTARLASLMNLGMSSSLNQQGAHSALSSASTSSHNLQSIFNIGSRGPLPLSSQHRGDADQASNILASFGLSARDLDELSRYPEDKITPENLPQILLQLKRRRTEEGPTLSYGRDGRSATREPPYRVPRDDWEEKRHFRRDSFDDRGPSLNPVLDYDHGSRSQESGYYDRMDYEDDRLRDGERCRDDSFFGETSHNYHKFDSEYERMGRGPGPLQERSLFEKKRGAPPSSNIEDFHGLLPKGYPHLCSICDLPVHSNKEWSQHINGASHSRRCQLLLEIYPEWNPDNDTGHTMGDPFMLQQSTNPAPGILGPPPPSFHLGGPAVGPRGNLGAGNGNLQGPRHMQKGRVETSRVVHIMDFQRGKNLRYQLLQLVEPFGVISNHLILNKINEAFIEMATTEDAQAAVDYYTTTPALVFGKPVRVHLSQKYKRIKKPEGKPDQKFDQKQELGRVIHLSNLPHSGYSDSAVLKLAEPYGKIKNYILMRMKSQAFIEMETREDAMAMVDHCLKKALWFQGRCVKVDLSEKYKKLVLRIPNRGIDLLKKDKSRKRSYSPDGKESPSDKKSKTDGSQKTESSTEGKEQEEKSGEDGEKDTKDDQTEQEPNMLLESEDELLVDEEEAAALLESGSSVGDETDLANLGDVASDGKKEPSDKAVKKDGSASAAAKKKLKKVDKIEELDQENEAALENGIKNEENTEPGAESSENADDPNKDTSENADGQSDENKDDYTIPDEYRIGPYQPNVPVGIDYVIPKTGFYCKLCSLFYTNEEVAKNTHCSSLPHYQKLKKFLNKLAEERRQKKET
Experiment: pull-down; purified GST-Matrin-3 (50 ng) incubated with Ba/F3 nuclear extracts (10 µg) in Interaction Buffer (20 mM Tris pH 8.0, 137 mM NaCl, 1.5 mM MgCl2, 1 mM EGTA, 0.1% Triton X-100, 10% glycerol), 1.5 h at 4°C; captured on Glutathione Sepharose 4B; immunoblot with anti-p68 or anti-CTCF Ab; only the target purified

binding: binds
B1: CCCTC-binding factor (endogenous, Ba/F3 nuclear extract) (protein, UniProt Q61164 1-736)
chain: MEGEAVEAIVEESETFIKGKERKTYQRRREGGQEEDACHLPQNQTDGGEVVQDVNSSVQMVMMEQLDPTLLQMKTEVMEGTVAPEAEAAVDDTQIITLQVVNMEEQPINIGELQLVQVPVPVTVPVATTSVEELQGAYENEVSKEGLAESEPMICHTLPLPEGFQVVKVGANGEVETLEQGELPPQEDSSWQKDPDYQPPAKKTKKTKKSKLRYTEEGKDVDVSVYDFEEEQQEGLLSEVNAEKVVGNMKPPKPTKIKKKGVKKTFQCELCSYTCPRRSNLDRHMKSHTDERPHKCHLCGRAFRTVTLLRNHLNTHTGTRPHKCPDCDMAFVTSGELVRHRRYKHTHEKPFKCSMCDYASVEVSKLKRHIRSHTGERPFQCSLCSYASRDTYKLKRHMRTHSGEKPYECYICHARFTQSGTMKMHILQKHTENVAKFHCPHCDTVIARKSDLGVHLRKQHSYIEQGKKCRYCDAVFHERYALIQHQKSHKNEKRFKCDQCDYACRQERHMIMHKRTHTGEKPYACSHCDKTFRQKQLLDMHFKRYHDPNFVPAAFVCSKCGKTFTRRNTMARHADNCAGPDGVEGENGGETKKSKRGRKRKMRSKKEDSSDSEENAEPDLDDNEEEEEPAVEIEPEPEPQPQPPPPPQPVAPAPPPAKKRRGRPPGRTNQPKQNQPTAIIQVEDQNTGAIENIIVEVKKEPDAEPAEGEEEEAQAATTDAPNGDLTPEMILSMMDR
